Results are given in words; binding and its absence hold for the method and conditions named. Binding seen in cells or lysates may run through a third protein. A result given as binding can be weak or reduced; the word gives no strength. Tags and fused reporters may be left off the sequences shown.
Key:
[1] = target: T1, GFP-AGO1 fusion protein (Arabidopsis thaliana Argonaute 1) (A. thaliana) (UniProt O04379); test: co-IP
T1 sequence: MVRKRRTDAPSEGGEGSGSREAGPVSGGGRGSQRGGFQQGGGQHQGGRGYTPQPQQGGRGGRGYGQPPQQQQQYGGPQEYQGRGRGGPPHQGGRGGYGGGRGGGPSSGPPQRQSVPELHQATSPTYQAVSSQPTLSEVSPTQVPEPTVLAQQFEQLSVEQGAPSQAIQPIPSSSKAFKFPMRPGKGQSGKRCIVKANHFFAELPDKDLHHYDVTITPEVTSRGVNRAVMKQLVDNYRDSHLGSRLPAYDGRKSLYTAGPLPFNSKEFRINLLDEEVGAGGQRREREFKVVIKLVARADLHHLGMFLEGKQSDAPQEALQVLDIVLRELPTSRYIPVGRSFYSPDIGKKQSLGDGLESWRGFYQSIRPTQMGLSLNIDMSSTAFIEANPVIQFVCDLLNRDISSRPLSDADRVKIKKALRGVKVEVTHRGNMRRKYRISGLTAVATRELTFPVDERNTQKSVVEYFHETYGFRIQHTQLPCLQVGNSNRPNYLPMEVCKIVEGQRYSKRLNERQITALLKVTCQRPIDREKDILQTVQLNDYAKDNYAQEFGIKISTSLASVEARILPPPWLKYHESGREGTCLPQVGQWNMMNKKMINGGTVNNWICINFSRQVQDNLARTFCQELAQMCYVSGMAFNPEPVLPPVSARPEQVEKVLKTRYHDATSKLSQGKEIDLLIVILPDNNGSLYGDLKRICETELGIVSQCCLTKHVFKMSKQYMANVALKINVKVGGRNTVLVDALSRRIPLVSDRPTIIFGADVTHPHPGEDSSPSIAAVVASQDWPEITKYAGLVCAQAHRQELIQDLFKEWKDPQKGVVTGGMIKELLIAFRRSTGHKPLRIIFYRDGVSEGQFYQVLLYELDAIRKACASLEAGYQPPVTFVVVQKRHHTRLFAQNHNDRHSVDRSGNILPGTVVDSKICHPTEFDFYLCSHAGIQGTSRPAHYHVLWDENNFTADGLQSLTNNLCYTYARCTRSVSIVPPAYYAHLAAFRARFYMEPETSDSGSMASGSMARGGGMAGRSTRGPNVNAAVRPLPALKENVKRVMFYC

[2] = target: T2, Argonaute 1 protein-yellow fluorescent protein N-proximal domain fusion protein (A. thaliana) (UniProt O04379); test: split reporter
T2 sequence: T1 sequence

In the case of “Fny-CMV 2b protein, C-terminal RFP fusion (cucumber mosaic virus, strain Fny)”, the binding [1] is reported as “binds”.
In the case of “Fny-CMV 2b protein, split-YFP fusion for BiFC (cucumber mosaic virus, strain Fny)”, the binding [2] is reported as “binds”.
With “Ho-CMV 2b protein (recapitulated from Fny-CMV 2b), C-terminal RFP fusion (cucumber mosaic virus, strain Ho)” the binding [1] was “binds”.
In the case of “Ho-CMV 2b protein (recapitulated from Fny-CMV 2b), split-YFP fusion for BiFC (cucumber mosaic virus, strain Ho)”, the binding [2] is reported as “binds”.
